Results taken from patent US20050272633A1.
Results are given in words; binding and its absence hold for the method and conditions named. In cells and extracts the contact can be indirect. Some entries that bind do so weakly or less than the wild type. Sequences can lack the tags named with a protein.

By UniProt entry, the sequences of proteins in these tests, tags left out.
UniProt Q99558: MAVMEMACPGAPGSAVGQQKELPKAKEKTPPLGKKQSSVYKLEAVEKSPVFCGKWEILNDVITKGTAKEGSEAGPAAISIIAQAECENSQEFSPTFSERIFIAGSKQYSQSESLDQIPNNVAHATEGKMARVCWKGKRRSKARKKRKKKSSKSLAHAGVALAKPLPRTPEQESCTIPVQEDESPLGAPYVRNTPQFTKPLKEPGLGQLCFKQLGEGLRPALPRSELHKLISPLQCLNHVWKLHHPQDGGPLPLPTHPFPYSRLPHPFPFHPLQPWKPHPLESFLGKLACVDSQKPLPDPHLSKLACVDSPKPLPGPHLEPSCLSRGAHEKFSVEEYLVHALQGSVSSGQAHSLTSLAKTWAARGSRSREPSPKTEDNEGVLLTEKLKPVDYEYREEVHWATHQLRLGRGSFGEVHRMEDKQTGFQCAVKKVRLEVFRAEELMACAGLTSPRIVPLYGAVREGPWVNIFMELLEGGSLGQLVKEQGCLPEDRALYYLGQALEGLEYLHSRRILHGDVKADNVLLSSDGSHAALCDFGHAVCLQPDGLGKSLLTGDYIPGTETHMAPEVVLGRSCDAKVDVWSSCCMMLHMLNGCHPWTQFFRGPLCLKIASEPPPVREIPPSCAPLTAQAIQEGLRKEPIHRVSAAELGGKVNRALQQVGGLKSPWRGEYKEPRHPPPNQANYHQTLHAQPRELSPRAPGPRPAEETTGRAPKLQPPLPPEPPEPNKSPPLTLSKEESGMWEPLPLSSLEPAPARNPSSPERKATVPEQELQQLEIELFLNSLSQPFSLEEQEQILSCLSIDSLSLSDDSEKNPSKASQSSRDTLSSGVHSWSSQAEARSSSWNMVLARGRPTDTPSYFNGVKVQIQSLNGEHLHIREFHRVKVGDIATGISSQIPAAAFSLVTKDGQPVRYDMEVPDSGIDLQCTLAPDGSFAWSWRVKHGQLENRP

Target: myc tagged NIK (pcS3MTNIK) (human) (UniProt Q99558)
Test: co-immunoprecipitation with anti GST, Western blot with anti myc

binding: binds
Binder: WLERTMPRIPTLKNLEDLVTEYHGNFSAWSGVSKGLAESLQPDY (peptide, not shown: a dimerising Fc or GST) [44 MPD fused to GST]
